Experimental data published in the supplement of paper PMC5836539.
± gives the standard deviation of the averaged measurements. This data set is noisy: repeats of one test often differ as much as different tests do.

Sequences of proteins named here, by UniProt entry; tags and fusion partners are left off. A change or cut given only in a name is not applied to a line headed by its entry.
UniProt Q5VUA4: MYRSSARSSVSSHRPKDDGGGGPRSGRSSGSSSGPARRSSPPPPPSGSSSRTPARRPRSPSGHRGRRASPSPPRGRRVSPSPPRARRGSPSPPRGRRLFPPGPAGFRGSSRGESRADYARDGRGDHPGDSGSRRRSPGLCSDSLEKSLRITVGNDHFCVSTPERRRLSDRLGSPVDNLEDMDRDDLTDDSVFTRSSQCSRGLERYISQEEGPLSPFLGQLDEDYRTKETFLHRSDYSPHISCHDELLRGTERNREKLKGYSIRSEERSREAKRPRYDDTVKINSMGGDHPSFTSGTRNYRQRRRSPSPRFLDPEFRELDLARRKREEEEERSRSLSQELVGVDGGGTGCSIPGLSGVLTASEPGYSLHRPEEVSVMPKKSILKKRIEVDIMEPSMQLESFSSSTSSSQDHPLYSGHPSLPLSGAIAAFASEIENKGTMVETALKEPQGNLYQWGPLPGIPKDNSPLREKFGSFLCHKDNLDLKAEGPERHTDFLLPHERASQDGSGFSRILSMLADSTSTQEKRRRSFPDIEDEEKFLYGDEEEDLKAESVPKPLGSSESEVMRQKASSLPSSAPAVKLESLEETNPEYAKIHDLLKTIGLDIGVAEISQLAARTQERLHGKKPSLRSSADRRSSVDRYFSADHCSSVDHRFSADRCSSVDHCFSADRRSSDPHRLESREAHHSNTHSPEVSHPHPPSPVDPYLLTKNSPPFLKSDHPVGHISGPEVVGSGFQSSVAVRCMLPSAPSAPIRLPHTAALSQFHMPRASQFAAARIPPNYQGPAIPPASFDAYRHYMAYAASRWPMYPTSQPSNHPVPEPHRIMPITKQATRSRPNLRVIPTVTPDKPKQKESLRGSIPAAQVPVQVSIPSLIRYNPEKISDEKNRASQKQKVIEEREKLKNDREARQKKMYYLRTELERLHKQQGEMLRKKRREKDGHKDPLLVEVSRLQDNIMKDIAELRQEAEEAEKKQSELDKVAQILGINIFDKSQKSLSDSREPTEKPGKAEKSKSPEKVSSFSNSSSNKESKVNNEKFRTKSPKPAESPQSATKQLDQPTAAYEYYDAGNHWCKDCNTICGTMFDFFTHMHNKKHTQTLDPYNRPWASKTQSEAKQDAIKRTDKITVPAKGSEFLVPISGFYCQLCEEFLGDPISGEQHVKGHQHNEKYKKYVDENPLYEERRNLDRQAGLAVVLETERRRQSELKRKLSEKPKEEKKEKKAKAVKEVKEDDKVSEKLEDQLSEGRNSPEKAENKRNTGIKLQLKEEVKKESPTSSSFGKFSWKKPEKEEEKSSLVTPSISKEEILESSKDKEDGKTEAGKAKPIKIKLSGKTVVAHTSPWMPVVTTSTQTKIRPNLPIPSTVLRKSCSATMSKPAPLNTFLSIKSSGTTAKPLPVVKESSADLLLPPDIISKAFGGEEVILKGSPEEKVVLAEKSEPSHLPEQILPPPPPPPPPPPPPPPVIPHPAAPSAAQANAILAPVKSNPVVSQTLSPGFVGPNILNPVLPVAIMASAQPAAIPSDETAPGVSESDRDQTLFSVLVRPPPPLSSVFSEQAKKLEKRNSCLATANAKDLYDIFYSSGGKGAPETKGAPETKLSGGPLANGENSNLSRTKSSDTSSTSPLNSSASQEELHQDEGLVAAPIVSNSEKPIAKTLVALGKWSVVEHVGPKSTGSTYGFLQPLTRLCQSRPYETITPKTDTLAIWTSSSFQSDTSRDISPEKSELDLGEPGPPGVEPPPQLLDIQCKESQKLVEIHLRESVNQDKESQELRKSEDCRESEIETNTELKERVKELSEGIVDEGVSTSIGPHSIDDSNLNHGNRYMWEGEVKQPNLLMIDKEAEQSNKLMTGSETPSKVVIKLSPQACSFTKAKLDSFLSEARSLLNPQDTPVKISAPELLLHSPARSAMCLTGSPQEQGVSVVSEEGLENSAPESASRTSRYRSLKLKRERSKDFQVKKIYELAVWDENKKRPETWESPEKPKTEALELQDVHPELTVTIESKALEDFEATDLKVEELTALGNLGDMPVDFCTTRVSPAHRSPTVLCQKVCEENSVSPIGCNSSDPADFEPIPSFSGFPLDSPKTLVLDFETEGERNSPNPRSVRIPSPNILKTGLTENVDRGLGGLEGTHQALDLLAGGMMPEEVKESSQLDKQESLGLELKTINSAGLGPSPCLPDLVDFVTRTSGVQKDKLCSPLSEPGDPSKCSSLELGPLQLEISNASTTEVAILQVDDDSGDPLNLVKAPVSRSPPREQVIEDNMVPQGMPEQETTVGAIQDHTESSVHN
UniProt Q15311: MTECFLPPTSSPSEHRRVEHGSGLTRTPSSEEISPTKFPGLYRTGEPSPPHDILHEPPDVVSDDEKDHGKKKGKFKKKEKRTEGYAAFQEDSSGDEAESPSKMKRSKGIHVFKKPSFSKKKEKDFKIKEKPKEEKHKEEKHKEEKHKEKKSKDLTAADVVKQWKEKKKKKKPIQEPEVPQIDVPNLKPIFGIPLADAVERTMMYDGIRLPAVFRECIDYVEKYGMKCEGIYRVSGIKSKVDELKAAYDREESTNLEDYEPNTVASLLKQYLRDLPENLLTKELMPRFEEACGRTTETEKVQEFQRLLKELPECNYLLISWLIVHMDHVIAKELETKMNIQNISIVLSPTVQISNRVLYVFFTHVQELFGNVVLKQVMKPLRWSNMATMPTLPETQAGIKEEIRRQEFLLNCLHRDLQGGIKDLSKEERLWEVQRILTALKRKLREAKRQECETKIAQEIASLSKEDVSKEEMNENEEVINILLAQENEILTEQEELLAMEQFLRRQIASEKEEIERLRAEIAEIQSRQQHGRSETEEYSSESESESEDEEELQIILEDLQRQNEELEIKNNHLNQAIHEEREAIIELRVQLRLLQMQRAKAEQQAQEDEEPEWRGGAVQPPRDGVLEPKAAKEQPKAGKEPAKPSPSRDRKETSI
UniProt O60271: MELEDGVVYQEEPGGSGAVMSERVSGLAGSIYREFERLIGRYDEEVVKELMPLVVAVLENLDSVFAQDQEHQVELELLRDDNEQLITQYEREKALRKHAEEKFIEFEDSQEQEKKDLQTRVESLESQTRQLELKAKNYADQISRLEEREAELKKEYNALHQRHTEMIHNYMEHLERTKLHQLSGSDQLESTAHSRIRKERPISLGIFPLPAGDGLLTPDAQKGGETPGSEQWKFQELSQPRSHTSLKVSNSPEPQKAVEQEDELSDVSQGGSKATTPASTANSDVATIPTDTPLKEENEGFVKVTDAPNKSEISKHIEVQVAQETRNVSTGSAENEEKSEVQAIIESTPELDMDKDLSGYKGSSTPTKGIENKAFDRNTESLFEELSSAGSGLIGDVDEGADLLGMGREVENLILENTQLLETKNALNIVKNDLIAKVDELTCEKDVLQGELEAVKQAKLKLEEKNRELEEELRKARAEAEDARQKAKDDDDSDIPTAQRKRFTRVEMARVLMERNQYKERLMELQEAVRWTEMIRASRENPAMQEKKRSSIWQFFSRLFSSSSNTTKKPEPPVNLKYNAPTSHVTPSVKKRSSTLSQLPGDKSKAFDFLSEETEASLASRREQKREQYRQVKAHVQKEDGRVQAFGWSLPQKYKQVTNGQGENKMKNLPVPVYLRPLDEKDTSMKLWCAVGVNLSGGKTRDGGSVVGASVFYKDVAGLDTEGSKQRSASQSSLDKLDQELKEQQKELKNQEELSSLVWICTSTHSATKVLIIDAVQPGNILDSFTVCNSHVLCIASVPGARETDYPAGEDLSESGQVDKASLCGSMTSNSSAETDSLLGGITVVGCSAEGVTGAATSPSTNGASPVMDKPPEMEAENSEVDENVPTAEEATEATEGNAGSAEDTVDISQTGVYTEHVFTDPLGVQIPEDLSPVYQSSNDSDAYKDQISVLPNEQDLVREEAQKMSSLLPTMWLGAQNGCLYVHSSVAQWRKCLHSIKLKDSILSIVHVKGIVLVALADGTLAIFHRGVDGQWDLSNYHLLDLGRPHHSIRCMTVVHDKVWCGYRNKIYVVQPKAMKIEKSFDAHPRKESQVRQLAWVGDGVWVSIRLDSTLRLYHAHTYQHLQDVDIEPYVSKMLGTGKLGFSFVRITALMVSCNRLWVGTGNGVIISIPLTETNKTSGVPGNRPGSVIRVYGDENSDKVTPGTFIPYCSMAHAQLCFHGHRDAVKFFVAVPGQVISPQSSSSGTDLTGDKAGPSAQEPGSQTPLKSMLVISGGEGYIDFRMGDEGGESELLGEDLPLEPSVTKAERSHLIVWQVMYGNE
UniProt Q9BV44: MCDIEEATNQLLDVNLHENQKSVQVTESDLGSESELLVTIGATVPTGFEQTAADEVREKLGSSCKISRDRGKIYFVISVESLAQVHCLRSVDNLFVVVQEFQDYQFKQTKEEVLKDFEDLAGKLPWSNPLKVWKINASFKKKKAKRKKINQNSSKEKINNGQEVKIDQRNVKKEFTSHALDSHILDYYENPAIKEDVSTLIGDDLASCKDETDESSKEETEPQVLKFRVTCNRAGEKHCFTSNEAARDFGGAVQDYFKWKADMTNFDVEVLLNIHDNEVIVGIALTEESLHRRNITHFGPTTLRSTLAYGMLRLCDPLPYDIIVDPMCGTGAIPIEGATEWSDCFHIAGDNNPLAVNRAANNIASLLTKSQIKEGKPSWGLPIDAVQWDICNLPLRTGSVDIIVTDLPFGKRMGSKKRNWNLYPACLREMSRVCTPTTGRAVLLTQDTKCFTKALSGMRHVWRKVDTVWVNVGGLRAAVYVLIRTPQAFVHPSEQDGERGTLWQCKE
UniProt Q96E09: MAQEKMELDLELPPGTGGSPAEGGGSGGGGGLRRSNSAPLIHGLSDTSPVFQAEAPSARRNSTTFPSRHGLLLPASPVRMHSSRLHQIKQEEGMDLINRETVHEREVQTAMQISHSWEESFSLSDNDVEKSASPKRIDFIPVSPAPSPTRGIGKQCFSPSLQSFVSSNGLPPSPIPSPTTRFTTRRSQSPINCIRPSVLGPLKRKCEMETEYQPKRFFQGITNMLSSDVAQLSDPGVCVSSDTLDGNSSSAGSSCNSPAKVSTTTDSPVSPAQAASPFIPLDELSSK
UniProt Q9NRY4: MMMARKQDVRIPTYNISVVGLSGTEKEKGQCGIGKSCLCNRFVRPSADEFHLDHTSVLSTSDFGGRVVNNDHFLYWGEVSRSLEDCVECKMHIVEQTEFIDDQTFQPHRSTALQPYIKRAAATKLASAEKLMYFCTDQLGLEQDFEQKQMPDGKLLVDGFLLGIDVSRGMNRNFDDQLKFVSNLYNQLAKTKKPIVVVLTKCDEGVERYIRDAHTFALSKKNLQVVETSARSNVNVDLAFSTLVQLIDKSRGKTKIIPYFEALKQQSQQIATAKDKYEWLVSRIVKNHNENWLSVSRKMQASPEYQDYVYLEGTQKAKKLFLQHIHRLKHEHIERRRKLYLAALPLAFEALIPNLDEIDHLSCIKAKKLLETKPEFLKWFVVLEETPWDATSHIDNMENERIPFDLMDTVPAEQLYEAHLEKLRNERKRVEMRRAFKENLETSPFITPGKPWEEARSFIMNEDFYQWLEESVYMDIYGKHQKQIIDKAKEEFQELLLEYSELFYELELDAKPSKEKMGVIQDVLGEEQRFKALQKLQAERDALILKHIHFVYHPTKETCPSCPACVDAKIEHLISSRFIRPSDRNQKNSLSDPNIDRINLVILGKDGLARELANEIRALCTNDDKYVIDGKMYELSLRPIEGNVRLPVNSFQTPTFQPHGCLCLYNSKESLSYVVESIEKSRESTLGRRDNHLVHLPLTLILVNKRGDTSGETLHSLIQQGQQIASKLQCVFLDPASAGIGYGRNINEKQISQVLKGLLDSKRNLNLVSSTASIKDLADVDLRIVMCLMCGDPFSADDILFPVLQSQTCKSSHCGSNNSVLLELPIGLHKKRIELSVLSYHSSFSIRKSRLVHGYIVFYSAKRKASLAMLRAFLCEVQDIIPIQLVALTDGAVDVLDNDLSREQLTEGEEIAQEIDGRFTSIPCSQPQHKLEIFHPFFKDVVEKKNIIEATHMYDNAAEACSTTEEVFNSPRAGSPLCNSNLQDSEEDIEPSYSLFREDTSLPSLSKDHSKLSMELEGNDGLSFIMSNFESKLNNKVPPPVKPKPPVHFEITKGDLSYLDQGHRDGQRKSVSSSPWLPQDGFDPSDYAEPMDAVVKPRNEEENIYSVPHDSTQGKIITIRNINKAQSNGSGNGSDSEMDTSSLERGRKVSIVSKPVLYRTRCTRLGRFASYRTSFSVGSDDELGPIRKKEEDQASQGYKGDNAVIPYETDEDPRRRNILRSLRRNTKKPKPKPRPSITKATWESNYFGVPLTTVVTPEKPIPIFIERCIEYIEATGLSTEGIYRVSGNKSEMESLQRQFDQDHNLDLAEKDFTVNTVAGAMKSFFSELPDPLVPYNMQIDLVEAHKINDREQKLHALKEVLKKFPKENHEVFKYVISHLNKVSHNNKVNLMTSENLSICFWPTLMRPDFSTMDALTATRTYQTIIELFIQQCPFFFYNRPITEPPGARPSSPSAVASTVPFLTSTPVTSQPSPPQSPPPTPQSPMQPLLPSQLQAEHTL

Compound: T1, CC[C@@H](C)Nc1cc(C(=O)N[C@H]2C[C@H]3CC[C@@H](C2)N3c2ccc(C(=O)C3CC3)cn2)c(C)cc1C(N)=O [XL888]
Test: phosphopeptide melting temperature shift (XL888 minus DMSO); higher = stabilised by drug treatment
Conditions: 100 µM; treatment time 2 h; layout: intact cells; SK-Mel 28
Experimental: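 Phospho-TPP in intact SK-Mel 28 cells treated with 100 uM XL888 or DMSO for 2 h, heated at 10 temperatures (37-67 C) for 3 min, soluble fraction TMT10plex-labelled and TiO2 phospho-enriched. Melting curves were fitted per phosphopeptide; the value is the melting point difference (drug minus vehicle) in each of two biological replicates.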

| Target | phosphopeptide melting temperature shift |
| --- | --- |
| UniProt Q9Y5S9_phosphosite_56 (phosphosite position: 56) | 11.4 °C |
| UniProt Q5VZK9-2_phosphosite_1286 (phosphosite position: 1286) | 0.395 °C |
| KLC4 phosphosite_590 (phosphosite position: 590) (UniProt Q9NSK0) | 1.83 ± 1.5 °C |
| SNX2 phosphosite_119 (phosphosite position: 119) (UniProt O60749) | -1.32 ± 0.71 °C |
| UniProt Q5T8I3-2_phosphosite_320 (phosphosite position: 320) | 1.61 °C |
| ARFGEF2 phosphosite_1511 (phosphosite position: 1511) (UniProt Q9Y6D5) | 1.68 ± 1.2 °C |
| UniProt Q13247_phosphosite_316 (phosphosite position: 316) | 1.08 ± 2.4 °C |
| UniProt O75030-11_phosphosite_245 (phosphosite position: 245) | 2.5 ± 2.2 °C |
| ZNF318 phosphosite_1243 (phosphosite position: 1243) (UniProt Q5VUA4) | 7.93 ± 1.8 °C |
| UniProt Q96JG6_phosphosite_561 (phosphosite position: 561) | 0.344 ± 0.39 °C |
| UniProt Q8TE77-4_phosphosite_87 (phosphosite position: 87) | 3.79 °C |
| UniProt Q3YEC7_phosphosite_599 (phosphosite position: 599) | 1.74 ± 1.8 °C |
| UniProt Q8WVC0-2_phosphosite_212 (phosphosite position: 212) | 2.32 °C |
| GPRASP2 phosphosite_330 (phosphosite position: 330) (UniProt Q96D09) | 2.11 °C |
| UniProt Q00613-2_phosphosite_307 (phosphosite position: 307) | 2.01 ± 1.1 °C |
| UniProt Q7Z3E5-2_phosphosite_582 (phosphosite position: 582) | 1.65 ± 0.38 °C |
| UniProt Q9BUR4_phosphosite_85 (phosphosite position: 85) | -0.00358 °C |
| MAGED2 phosphosite_190 (phosphosite position: 190) (UniProt Q9UNF1) | 0.437 ± 1.6 °C |
| UniProt Q05209-2_phosphosite_476 (phosphosite position: 476) | 1.54 ± 1.2 °C |
| UniProt P08559-3_phosphosite_201 (phosphosite position: 201) | 0.935 °C |
| UniProt P16383_phosphosite_428 (phosphosite position: 428) | -1.14 °C |

| Target | phosphopeptide melting temperature shift |
| --- | --- |
| RALBP1 phosphosite_62 (phosphosite position: 62) (UniProt Q15311) | -0.599 ± 1.2 °C |
| KIAA1522 phosphosite_673 (phosphosite position: 673) (UniProt Q9P206) | 1.46 ± 0.4 °C |
| TANC2 phosphosite_400 (phosphosite position: 400) (UniProt Q9HCD6) | 0.863 °C |
| UniProt Q9BZQ8_phosphosite_582 (phosphosite position: 582) | 0.451 ± 1.6 °C |
| UniProt Q8TDZ2-2_phosphosite_789 (phosphosite position: 789) | 1.59 ± 0.27 °C |
| NDRG3 phosphosite_352 (phosphosite position: 352) (UniProt Q9UGV2) | 3.18 °C |
| MAGED2 phosphosite_191 (phosphosite position: 191) (UniProt Q9UNF1) | 0.973 ± 0.13 °C |
| SPAG9 phosphosite_217 (phosphosite position: 217) (UniProt O60271) | 0.788 ± 0.93 °C |
| TNS1 phosphosite_907 (phosphosite position: 907) (UniProt Q9HBL0) | 4.35 °C |
| UniProt Q9UKM9-2_phosphosite_272 (phosphosite position: 272) | 1.52 ± 1.3 °C |
| UniProt Q13439-5_phosphosite_93 (phosphosite position: 93) | 2.42 °C |
| UniProt Q86W92-2_phosphosite_595 (phosphosite position: 595) | 0.616 ± 1.3 °C |
| UniProt Q9P0K7-4_phosphosite_638 (phosphosite position: 638) | -0.402 ± 0.32 °C |
| THUMPD3 phosphosite_215 (phosphosite position: 215) (UniProt Q9BV44) | 1.89 °C |
| PURB phosphosite_101 (phosphosite position: 101) (UniProt Q96QR8) | -0.262 °C |
| MAP1B phosphosite_970 (phosphosite position: 970) (UniProt P46821) | -1.4 °C |
| ACACA phosphosite_1263 (phosphosite position: 1263) (UniProt Q13085) | 0.196 °C |
| UniProt Q96B23-2_phosphosite_69 (phosphosite position: 69) | 0.598 °C |
| CD2BP2 phosphosite_195 (phosphosite position: 195) (UniProt O95400) | -1.8 °C |
| UniProt Q9UNS1-2_phosphosite_1120 (phosphosite position: 1120) | 3.44 °C |
| UniProt P62899_phosphosite_98 (phosphosite position: 98) | -1.16 ± 0.56 °C |

| Target | phosphopeptide melting temperature shift |
| --- | --- |
| UniProt Q9BSJ6-2_phosphosite_16 (phosphosite position: 16) | 0.977 °C |
| UniProt Q14004-2_phosphosite_439 (phosphosite position: 439) | -0.549 ± 1.6 °C |
| FAM122A phosphosite_76 (phosphosite position: 76) (UniProt Q96E09) | 3.47 °C |
| UniProt Q8TDJ6-2_phosphosite_1348 (phosphosite position: 1348) | 1.87 ± 0.84 °C |
| TOM1 phosphosite_164 (phosphosite position: 164) (UniProt O60784) | 0.241 ± 1.3 °C |
| SRRM2 phosphosite_2407 (phosphosite position: 2407) (UniProt Q9UQ35) | -1.44 °C |
| FASN phosphosite_207 (phosphosite position: 207) (UniProt P49327) | 0.302 ± 0.3 °C |
| UniProt Q00613-2_phosphosite_303 (phosphosite position: 303) | 2.01 ± 1.1 °C |
| UniProt Q9NRY4_phosphosite_980 (phosphosite position: 980) | 0.985 ± 0.26 °C |
| UniProt Q9H4A3-2_phosphosite_1782 (phosphosite position: 1782) | 0.614 ± 0.26 °C |
| UniProt Q3KQU3-4_phosphosite_116 (phosphosite position: 116) | 1.41 °C |
| UniProt Q96N67-2_phosphosite_1423 (phosphosite position: 1423) | -2.0888 ± 5.8e-06 °C |
| UniProt O94804_phosphosite_20 (phosphosite position: 20) | 1.21 °C |
| SNX5 phosphosite_22 (phosphosite position: 22) (UniProt Q9Y5X3) | 2.03 ± 0.86 °C |
| ELMSAN1 phosphosite_461 (phosphosite position: 461) (UniProt Q6PJG2) | -0.0293 ± 0.2 °C |
| UniProt Q86UU1-3_phosphosite_324 (phosphosite position: 324) | -0.9 ± 0.076 °C |
| SRRM1 phosphosite_562 (phosphosite position: 562) (UniProt Q8IYB3) | 0.0984 ± 0.81 °C |
| UniProt P30622-2_phosphosite_195 (phosphosite position: 195) | 1.56 °C |
| UniProt P08559-3_phosphosite_269 (phosphosite position: 269) | -0.422 °C |

Two records picked at random from the list so far:

| Target | phosphopeptide melting temperature shift |
| --- | --- |
| UniProt P30622-2_phosphosite_195 (phosphosite position: 195) | 1.56 °C |
| UniProt Q86UU1-3_phosphosite_324 (phosphosite position: 324) | -0.9 ± 0.076 °C |

Compound: T1, XL888
Test: as above
Conditions: 100 µM; treatment time 2 h; layout: intact cells; SK-Mel 24
Experimental: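 Phospho-TPP in intact SK-Mel 24 cells treated with 100 uM XL888 or DMSO for 2 h, heated at 10 temperatures (37-67 C) for 3 min, soluble fraction TMT10plex-labelled and TiO2 phospho-enriched. Melting curves were fitted per phosphopeptide; the value is the melting point difference (drug minus vehicle) in each of two biological replicates.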

| Target | phosphopeptide melting temperature shift |
| --- | --- |
| CANX phosphosite_564 (phosphosite position: 564) (UniProt P27824) | 3.55 °C |
| PGAM1 phosphosite_118 (phosphosite position: 118) (UniProt P18669) | 0.356 °C |
| UniProt Q05519-2_phosphosite_207 (phosphosite position: 207) | 0.475 °C |
